Read-outs that look alike come from different tables or passages of the source.
Assays:
[1] = cited from earlier work; for mean Cmax / median Tmax: healthy volunteers (Ivaturi 2009)
seizure = experiment: Rapid onset of therapeutic effect: seizure cessation measured by EEG after intranasal diazepam; details: 15 mg intranasal, dosed during seizure; individual subjects
[2] = intranasal 4 mg in polyethylene glycol 300 (Lindhardt 2001)
[3] = intranasal 7 mg in polyethylene glycol 300 (Lindhardt 2001)

In the case of `CN1C(=O)CN=C(c2ccccc2)c2cc(Cl)ccc21` [diazepam, 7-chloro-1,3-dihydro-1-methyl-5-phenyl-2H-1,4-benzodiazepin-2-one], the “AUC compared to rectally administered diazepam (DIASTAT)” value (intranasal 15 mg) is listed as “slightly lower”, the “AUC compared to rectally administered diazepam (DIASTAT)” value (intranasal 20 mg) is listed as “comparable AUC values” and the Tmax ([1]; intranasal 2 mg dose of 20 mg/mL diazepam solution in 5% glycofurol in polyethylene glycol 200 (Gizurarson and Bechgaard 1991)) is listed as 18 ± 11 min. For the same compound, the Cmax [1, 2] was 99 ng/mL, the Tmax [1, 2] was 18 min and the “mean Cmax” value ([1]; intranasal 5 mg) was 134.3 ± 62 ng/mL. The “median Tmax” value ([1]; intranasal 5 mg) was 20 min, the Cmax [1, 3] was 170 ng/mL and the Tmax [1, 3] was 42 min. For the same compound, the “mean Cmax” value ([1]; intranasal 10 mg) was 247.6 ± 61 ng/mL, the “median Tmax” value ([1]; intranasal 10 mg) was 30 min and the “Time to Seizure Cessation” value (seizure) was 2 min.
